The source of these data is patent US20250347705.

Chains of the proteins cited; added tags and fusions are not shown. Chains listed by the source or under a name are the forms on record and can include a tag or linker.
human chorionic gonadotropin (hCG), alpha/beta heterodimer (Homo sapiens), one chain, as listed by the source, chain 1 of 2: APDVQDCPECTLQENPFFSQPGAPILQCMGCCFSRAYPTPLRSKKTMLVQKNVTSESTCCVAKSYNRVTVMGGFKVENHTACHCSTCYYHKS

The subject of this data set is human chorionic gonadotropin (hCG), alpha/beta heterodimer (Homo sapiens). Nature of the data set: EMSA. The note with it: potential but not strong binding; artificial urine, room temp; ELONA significant vs BSA beads (p=0.001); purified native protein; label: 5' biotin; single-stranded DNA; variant of R5_4 full-length. Background: Mobility shift assays separate free from complexed probe on a gel.

The comparison behind a weaker result is the experiment's own reference, which may not be listed here.

Consider “CAAGGATCGGCTCAACTTAATATTGGAGGGATAGTGTTGG [R5_4 truncated]”, for which the binding result is reported as “binds more weakly”.
